Some of the results follow.
Biological target: T1, OsSMF1 (Oryza sativa, UniProt Q6ZLB0 1-436)
T1 sequence: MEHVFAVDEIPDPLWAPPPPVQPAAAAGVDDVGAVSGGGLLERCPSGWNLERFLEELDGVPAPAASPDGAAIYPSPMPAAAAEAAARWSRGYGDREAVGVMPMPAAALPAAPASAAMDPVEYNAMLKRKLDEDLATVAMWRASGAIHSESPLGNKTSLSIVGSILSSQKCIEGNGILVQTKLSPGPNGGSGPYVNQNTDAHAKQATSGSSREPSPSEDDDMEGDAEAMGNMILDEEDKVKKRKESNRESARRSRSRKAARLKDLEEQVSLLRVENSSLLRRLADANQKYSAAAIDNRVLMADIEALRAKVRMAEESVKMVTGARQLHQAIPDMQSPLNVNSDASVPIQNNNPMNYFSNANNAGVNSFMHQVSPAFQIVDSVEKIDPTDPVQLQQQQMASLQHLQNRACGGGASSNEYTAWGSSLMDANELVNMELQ
Experiment: protein-binding microarray (RPBM); PBS, 2% BSA, 51.3 ng/ul salmon testes DNA, 50 uM zinc acetate, 200 nM TF, 25 C, 1 h; high values mean tight binding
Conditions: protein: recombinant; tags: N-terminal polyhistidine and DsRed monomer fusion (pET32a); chain copies: 2; label: CyDye5-dUTP incorporated in the synthesized complementary strand; 3' TTTTT single-stranded linker to array surface; dsDNA, one strand shown
Procedure, shortened: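 Binding signal is reported as fluorescence intensity per feature (arbitrary units) from an Axon 4000B scanner. Incubation used 200 nM of each Ni–NTA-purified, N-terminally polyhistidine- and DsRed-fused transcription factor from E. coli BL21-CodonPlus on a double-stranded custom Agilent array for 1 h at 25 °C, with 50 µM zinc acetate in the buffer, followed by washing.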

Sequence	binding signal
TTGGTGCCCTTTTGACTCTGAAGACGACAATGATTTTCCTCGGAGTCACCTAGTGCAG	18200 fluorescence intensity (a.u.)
GGTCCCACACGTCATCGTCACGTACTCCAGGCTCTAGCCTCGGAGTCACCTAGTGCAG	13400 fluorescence intensity (a.u.)
CGCCTGCCTGCGTCACCACCACTCCACTCGTCGCTGCCCCCGGAGTCACCTAGTGCAG	14400 fluorescence intensity (a.u.)
CATCTGCTTTCTAGTTTCTTCCTGAAGTTCTGCGTCATAACGGAGTCACCTAGTGCAG	3470 fluorescence intensity (a.u.)
AACTTGCTCTAATCCTATTCTGACGTGGCCACCCGCTCCGCGGAGTCACCTAGTGCAG	26200 fluorescence intensity (a.u.)
GGACCTTCACTGCTGACAAGTGAAATGAGTCATGGGTGCTCGGAGTCACCTAGTGCAG	8880 fluorescence intensity (a.u.)
ACGACGTCGCCGACTACATCCGCTTCCGCGCCGTGTGCCGCGGAGTCACCTAGTGCAG	3470 fluorescence intensity (a.u.)
TCGTCCATGGCCGCAGATCTTTCGTCCGCGCCGTCAGCGGCGGAGTCACCTAGTGCAG	4180 fluorescence intensity (a.u.)
AACCTCAATGTTCCACGTCATCATTAATTTACAGCCGTTGCGGAGTCACCTAGTGCAG	39400 fluorescence intensity (a.u.)
AGACAAATGTTTCACACGTGTATGATCGTTCTAGAATTGTCGGAGTCACCTAGTGCAG	5530 fluorescence intensity (a.u.)
GAAGGAGAGGAAGAGGAAGAGGGGATAAAAGTTTTGCTTGCGGAGTCACCTAGTGCAG	28900 fluorescence intensity (a.u.)
AAGAGCGTTTAAACAAGCTGTGGAGTCAGCAGATAGATTACGGAGTCACCTAGTGCAG	3940 fluorescence intensity (a.u.)
TAGCAACAAACTTGATGCATACATCATCTCCACTATTTTCCGGAGTCACCTAGTGCAG	4380 fluorescence intensity (a.u.)
AAACGAATTGTCCTTACTGAATGCCCACTCACTACATTTTCGGAGTCACCTAGTGCAG	3470 fluorescence intensity (a.u.)
AGGCAACACGACAGCACATCGCATCGTACGTACGTCGTTCCGGAGTCACCTAGTGCAG	3730 fluorescence intensity (a.u.)
CATTTCCTCATCCCCTTCTCTCTGTAAAGGACGAGCTGTGCGGAGTCACCTAGTGCAG	3490 fluorescence intensity (a.u.)
GGCGGCGTCATCTGCGCCGCGTCCACACACATGTACGTCGCGGAGTCACCTAGTGCAG	3850 fluorescence intensity (a.u.)
GCCCAAGCGAGGACTTAACGATGTTGGCCACCGCCTGGCACGGAGTCACCTAGTGCAG	3170 fluorescence intensity (a.u.)
CGTTTGGACGGTTAGTGCGTCGCGTCGCCGCCCACTCGTCCGGAGTCACCTAGTGCAG	4130 fluorescence intensity (a.u.)
GAACACGGCCCGCCACGCTGGCACCAGACGGTTTTGATGGCGGAGTCACCTAGTGCAG	7330 fluorescence intensity (a.u.)
CACCAAGACGGAGTCAGCAACTGAGAATTCAGGCCCCGTTCGGAGTCACCTAGTGCAG	4780 fluorescence intensity (a.u.)

Sequence	binding signal
TGGCCGAGAGACCAGCTAGGTAGGAGAGCCCGCGTGCTGCCGGAGTCACCTAGTGCAG	15500 fluorescence intensity (a.u.)
CTATAAGAAATCCATATGAAGGTGTGACTCATCTAGCTGACGGAGTCACCTAGTGCAG	13200 fluorescence intensity (a.u.)
ACTTGGTGGAGCGAATACAGAGGTCGACGTGGTGGTGTAGCGGAGTCACCTAGTGCAG	4420 fluorescence intensity (a.u.)
GATGGGATCACCTACCTCCACGCCGCCACCGACAAGGTCCCGGAGTCACCTAGTGCAG	3460 fluorescence intensity (a.u.)
GCCGTCCCGAAATGGAAGCGCCTCAAAAGAAAGCATCCCTCGGAGTCACCTAGTGCAG	4620 fluorescence intensity (a.u.)
CCTCAGTGCTACGTCAATTGGCGCAGAATATCGTGTCACCCGGAGTCACCTAGTGCAG	5340 fluorescence intensity (a.u.)
ACTATTACTACCTCAGTTTTGAAATGTATGACGTTGACTTCGGAGTCACCTAGTGCAG	5730 fluorescence intensity (a.u.)
CTACCCTCCACCGGTGAGAGCTCCACGTCTCCAACCAAATCGGAGTCACCTAGTGCAG	4600 fluorescence intensity (a.u.)
GCAAAGAAAGCTACTGCACATAGGCAGGGTGTGCAGTCAGCGGAGTCACCTAGTGCAG	3530 fluorescence intensity (a.u.)
TGTTCAGGCACAGGTAATGAGGTGGAGTGTGAGCAGCTTGCGGAGTCACCTAGTGCAG	3620 fluorescence intensity (a.u.)
AATGGTACTGATTAGATTATCTCTTTTCCTGAATTCTATGCGGAGTCACCTAGTGCAG	5120 fluorescence intensity (a.u.)
GGGATGCTCATGGATGGACTGCACTTCATTGGGCTGCGTCCGGAGTCACCTAGTGCAG	18900 fluorescence intensity (a.u.)
GATGATGACGACAGTGACGCATTGGAAGATACATTCGCCTCGGAGTCACCTAGTGCAG	5070 fluorescence intensity (a.u.)
CTGCTGTTGAGTCAGCTCAGTTAGTTCTCTCCATTTTAGACGGAGTCACCTAGTGCAG	9430 fluorescence intensity (a.u.)
GGTAATAGTTTTAGAGGCATTCGATGTATAGTATGTATACCGGAGTCACCTAGTGCAG	3180 fluorescence intensity (a.u.)
TGTTTAAGGCTTTAAGCTTGCGTGGCAGCCTGTCAGGCAACGGAGTCACCTAGTGCAG	14600 fluorescence intensity (a.u.)
AATATAGTGTTGTTTGGTACTATATCGAGTTGGATTAGTTCGGAGTCACCTAGTGCAG	3190 fluorescence intensity (a.u.)
CTACATGTTCTCTGAATCTGAATGAGCTGTATTGTGCACTCGGAGTCACCTAGTGCAG	5500 fluorescence intensity (a.u.)
TAATTCTCTGGATGTGGCCGTGACGAGGACGCGACCGGCCCGGAGTCACCTAGTGCAG	5360 fluorescence intensity (a.u.)
AATTCTCACTTGACTCATGATTATCATCTCTACTATCGAACGGAGTCACCTAGTGCAG	4140 fluorescence intensity (a.u.)
CGGGCCCCACCCGCCACCAACCCCACGTGCTCCCGTATTCCGGAGTCACCTAGTGCAG	3310 fluorescence intensity (a.u.)

Part of the list above, with bars between the fields:
Sequence | binding signal
ACTATTACTACCTCAGTTTTGAAATGTATGACGTTGACTTCGGAGTCACCTAGTGCAG | 5730 fluorescence intensity (a.u.)
CTACCCTCCACCGGTGAGAGCTCCACGTCTCCAACCAAATCGGAGTCACCTAGTGCAG | 4600 fluorescence intensity (a.u.)
GCAAAGAAAGCTACTGCACATAGGCAGGGTGTGCAGTCAGCGGAGTCACCTAGTGCAG | 3530 fluorescence intensity (a.u.)

— PMC7819943, “Rice protein-binding microarrays: a tool to detect cis-acting elements near promoter regions in rice”
